Assay results reported in patent US20070264191A1, “Materials and Methods Relating to the Treatment of Glioblastomas” (priority 2004, published 2007).

System: human glioma cell lines (dGli36, SF767, U87MG, U251MG, U373MG)
Assay: Phage-display library (Ph.D-12) biopanning against mixed human glioma cell lines
Assay type: binding
Settings: 79 phage clones sequenced after enrichment and subtraction panning

Sequence	Frequency of occurrence (% of total clones sequenced)
FDTPHTLTWPHG (FDTPHTLTWFHG)	3%
HHGHSPTSPQVR	4%
ILANDLTAPGPR	5%
LPYGTSNRHAPV (LPYGTSWRHAPV)	4%
LWAAFPPQASVA	4%
LWATFPPRPPWL [MG11]	19%
SGHQLLLNKMPN [MG2]	24%
WSAAPTKPPYHT	6%
YVQGWNYHDLTR	4%
